Drawing on PMC12376620, “A Novel OsMPK6‐OsMADS47‐PPKL1/3 Module Controls Grain Shape and Yield in Rice”, this text covers binding for 7 molecules.

The chains behind the UniProt entries cited, without tags or fusion partners. Where a name states a change or a piece, a line headed by the entry shows the natural chain unless it says otherwise.
UniProt Q5K4R0: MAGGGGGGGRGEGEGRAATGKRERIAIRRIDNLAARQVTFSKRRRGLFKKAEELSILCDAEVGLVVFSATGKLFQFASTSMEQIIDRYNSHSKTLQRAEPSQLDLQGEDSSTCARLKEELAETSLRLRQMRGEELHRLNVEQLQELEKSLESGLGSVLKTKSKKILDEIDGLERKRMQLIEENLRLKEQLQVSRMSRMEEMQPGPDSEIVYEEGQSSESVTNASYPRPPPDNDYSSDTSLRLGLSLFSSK
UniProt Q84UI5: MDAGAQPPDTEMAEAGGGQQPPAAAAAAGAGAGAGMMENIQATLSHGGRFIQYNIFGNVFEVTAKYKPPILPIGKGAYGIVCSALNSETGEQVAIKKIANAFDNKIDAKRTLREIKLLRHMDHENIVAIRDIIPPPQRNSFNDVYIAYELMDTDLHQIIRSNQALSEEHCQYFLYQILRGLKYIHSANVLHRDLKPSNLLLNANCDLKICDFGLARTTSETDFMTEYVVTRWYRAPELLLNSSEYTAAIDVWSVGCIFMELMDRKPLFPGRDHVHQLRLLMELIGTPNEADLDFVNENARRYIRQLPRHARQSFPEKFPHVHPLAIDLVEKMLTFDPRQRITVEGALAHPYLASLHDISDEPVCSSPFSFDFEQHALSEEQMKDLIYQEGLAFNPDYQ

Read-outs that look alike come from different tables or passages of the source. Results are given in words; binding and its absence hold for the method and conditions named. For some of these results: In cells and extracts the contact can be indirect. Some entries that bind do so weakly or less than the wild type. For some of these results: Tags and fused reporters may be left off the sequences shown.

In assay [1] the target is OsMADS47^S78/80T70/79D (yeast two-hybrid fusion) (rice) (UniProt Q5K4R0). In words: two-hybrid; in yeast cells; selection medium not stated (Figures 6A, S9A, S9C, S12, S15).
The target in another assay is OsMADS47-CLUC (rice) (UniProt Q5K4R0). As to the kind of experiment: split reporter; luciferase complementation imaging; NLUC and CLUC fusions co-infiltrated into 3-week-old N. benthamiana leaves, 2.5 mM luciferin, imaged 72 h after infiltration; for the homodimer also with co-expressed OsMPK6 or OsMKK4^CA and OsMPK6.
Assay [2] addresses OsMADS47^S78/80T70/79A (yeast two-hybrid fusion) (rice) (UniProt Q5K4R0). As to the kind of experiment: two-hybrid; in yeast cells; selection medium not stated (Figures 6A, S9A, S9C, S12, S15).
A further assay concerns the target GST-OsMPK6 (rice) (UniProt Q84UI5). In words: pull-down; semi-in vivo: GST fusion pre-immobilized on GST beads, incubated with total protein extract of 7-day HA-OsMADS47 overexpression shoots in IP lysis buffer (50 mM Tris-HCl pH 7.5, 1% Triton X-100, 150 mM NaCl) at 4 °C for 1.5 h; anti-HA blot; only the target purified.
Assay [3] deals with OsMADS47 (yeast two-hybrid fusion) (rice) (UniProt Q5K4R0). In words: two-hybrid; in yeast cells; selection medium not stated (Figures 6A, S9A, S9C, S12, S15).
The target is the same in assay [4]. The description is as above. This is another data set of the same source.

As for “OsMADS47^S78/80T70/79D (yeast two-hybrid fusion) (from UniProt Q5K4R0 1-250)”, the binding entry in assay [1] is “binds”.

Take “OsMADS47-CLUC (from UniProt Q5K4R0 1-250)”: the binding entry with OsMADS47-CLUC (rice) is reported as “binds”.

In the case of “OsMPK6-NLUC (from UniProt Q84UI5 1-398) (enzyme)”, the binding entry in the assay with OsMADS47-CLUC (rice) was “binds”.

On to “OsMADS47^S78/80T70/79A (yeast two-hybrid fusion) (from UniProt Q5K4R0 1-250)”, for which the binding result in assay [2] is given as “no binding”.

As to HA-OsMADS47 (from UniProt Q5K4R0 1-250), the binding result with GST-OsMPK6 (rice) was “binds”.

For the molecule “OsMPK6 (yeast two-hybrid fusion) (from UniProt Q84UI5 1-398) (enzyme)”, the binding entry in assay [3] is recorded as “binds”.

B1: OsMPK3 (yeast two-hybrid fusion) (enzyme, UniProt Q10N20 1-369)
chain: MDGAPVAEFRPTMTHGGRYLLYDIFGNKFEVTNKYQPPIMPIGRGAYGIVCSVMNFETREMVAIKKIANAFNNDMDAKRTLREIKLLRHLDHENIIGIRDVIPPPIPQAFNDVYIATELMDTDLHHIIRSNQELSEEHCQYFLYQILRGLKYIHSANVIHRDLKPSNLLLNANCDLKICDFGLARPSSESDMMTEYVVTRWYRAPELLLNSTDYSAAIDVWSVGCIFMELINRQPLFPGRDHMHQMRLITEVIGTPTDDELGFIRNEDARKYMRHLPQYPRRTFASMFPRVQPAALDLIERMLTFNPLQRITVEEALDHPYLERLHDIADEPICLEPFSFDFEQKALNEDQMKQLIFNEAIEMNPNIRY
B1: in assay [4], the binding result was “binds”.
